Data from paper PMC10163288.
The list shows a part of the results.

B1: il10ra_site1_sap_20_mot_HHH_b1_02397_af2_000000085_0001_39_57_H_._HHH_b2_04780_af2_0001_0000200009_0000002_0_0001_af2pred_0001 (protein)
chain: SSSSSDREERLKQVLELLRRILESDDPEEREELLEEAERLIEEAGNELLRVLLEFLRKALSSSSS
B2: il10ra_site1_normal_mot_HHH_b2_00643_000000120_0001_23_40_H_._HHH_b2_03794_0001_0000200009_0000001_0 (protein)
chain: SSSSDAIQEAWRAVKEAAELFQRGDPEEAEQLLEEALERLEELGNEIAVLQVEHLLRAIENSSSS
B3: il10ra_site1_sap_16_mot_HHH_b1_03763_000000209_0001_22_38_H_._HHH_b2_07824_0001_0000100003_0000002_0_0001_af2pred_0001 (protein)
chain: SSSSDEERREYHREIEELMEKGDPRKAAKLLSELFELAAREGDEEMIKLVAELARILLELVSSSS
B4: il10ra_site1_normal_mot_65b8060e20531850bca9f2e11f97d954_0001_af2_000000137_0001_17_31_H_._HHH_b1_06320_0001_0000300019_0000002_0 (protein)
chain: SSSSDQEEERALELIVRISRLLAEGDPERARELLEELEELVEELGDPKLRLSVRFLKALASSSSS
B5: il10ra_site1_sap_20_mot_HHH_b1_02997_000000220_0001_39_52_H_._HHH_b1_05632_af2_0001_0000100001_0000004_0_0001 (protein)
chain: SSSSSNEEVYELIQEALELLANGDPEEAERVLEEAQEIAEELGSPVMRHAVEYALKQVRGSSSSS
B6: il10ra_site1_sap_22_mot_HHH_b2_02736_000000092_0001_22_38_H_._HHH_b1_07250_0002_0000100006_0000001_0_0001 (protein)
chain: SSSSDEEVIRLIMKAAHLLIQGDPEQARELVEEAKELAEELNDPELERLVEIILRAVEAASSSSS
B7: il10ra_site1_normal_mot_8756ee2cf497b5429c717dfc0c0bcfd6_0001_000000186_0001_1_13_H_._HHH_b1_07345_af2_0001_0000300018_0000001_0 (protein)
chain: SSSSDEELEELFKLLEKIAKLLHEGDHEEAERLVEEAEELAKELGNDVALFQLEYLQRHINSSSS
B8: il10ra_site1_sap_11_mot_HHH_b2_06600_af2_000000211_0001_1_16_H_._HHH_b2_08166_af2_0001_0000400020_0000002_0_0001 (protein)
chain: SSSSSRYLELTIRFIEMLLEDGDTEAARFFIKALKDIAKRNNDPEAEERAEELERIVEELSSSSS
B9: il10ra_site1_sap_20_mot_HHH_b1_04100_af2_000000180_0001_1_19_H_._HHH_b1_02064_0001_0000300030_0000001_0_0001 (protein)
chain: SSSSDKAEELAERVIEELEELRRRGDAEEVYRLIKEAYEELLELNDPEAVRLLLRFLKQWTSSSS
B10: il10ra_site1_sap_17_mot_9368472692dc9678e81f248f6367350b_0001_000000260_0001_20_35_H_._HHH_b1_01010_0001_0000500026_0000002_0_0001_af2pred_0001 (protein)
chain: SSSSDEEVQRALELAAKASRVAHERGDAELSKELDELALRLFREGDPRLAEELRELAEKILSSSS

molecular target: il10ra, Q13651; experiment: yeast display titration

Apparent Kd, inactive:
B1 no binding seen
B2 no binding seen
B3 no binding seen
B4 no binding seen
B5 no binding seen
B6 no binding seen
B7 no binding seen
B8 no binding seen
B9 no binding seen
B10 no binding seen
